{"source": "paper PMC9477392", "about": "(2022)", "binders": {"B1": {"name": "mediator of ERBB2-driven cell motility 1 (Memo1) (protein, UniProt Q9Y316 4-297)", "chain": "RVVCREASHAGSWYTASGPQLNAQLEGWLSQVQSTKRPARAIIAPHAGYTYCGSCAAHAYKQVDPSITRRIFILGPSHHVPLSRCALSSVDIYRTPLYDLRIDQKIYGELWKTGMFERMSLQTDEDEHSIEMHLPYTAKAMESHKDEFTIIPVLVGALSESKEQEFGKLFSKYLADPSNLFVVSSDFCHWGQRFRYSYYDESQGEIYRSIEHLDKMGMSIIEQLDPVSFSNYLKKYHNTICGRHPIGVLLNAITELQKNGMNMSFSFLNYAQSSQCRNWQDSSVSYAAGALTVH"}}, "target": "T1, Atox1 (Homo sapiens, UniProt O00244)", "T1 chain": "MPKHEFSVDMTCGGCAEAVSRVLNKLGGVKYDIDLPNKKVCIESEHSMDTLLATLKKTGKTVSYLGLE", "experiment": "SEC; Atox1 (50 µM) loaded with Cu(I) in a 1:1 ratio, then mixed with apo Memo1 (20 µM); absorbance at 255 and 280 nm; both purified", "note": "Results are given in words; binding and its absence hold for the method and conditions named.", "data": [{"binder": "B1", "values": [{"measurement": "binding", "result": "no binding (tested: 50 µM Cu(I)-Atox1, 20 µM apo Memo1)"}]}]}
